The experiment deals with T1, C4orf19-3xFLAG-miniTurbo (human) (UniProt Q8IY42).
T1 sequence: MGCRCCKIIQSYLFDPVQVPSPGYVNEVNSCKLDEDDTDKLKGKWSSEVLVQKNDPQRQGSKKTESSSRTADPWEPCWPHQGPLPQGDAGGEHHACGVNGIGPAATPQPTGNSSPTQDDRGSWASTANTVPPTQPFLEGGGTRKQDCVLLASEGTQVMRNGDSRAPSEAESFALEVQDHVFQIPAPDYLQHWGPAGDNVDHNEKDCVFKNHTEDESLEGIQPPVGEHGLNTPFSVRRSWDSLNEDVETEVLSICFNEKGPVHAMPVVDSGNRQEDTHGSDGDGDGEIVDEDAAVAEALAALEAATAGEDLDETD
In words: proximity labelling; miniTurboID in MCF10A expressing C4orf19-3xFLAG-miniTurbo; 0.5 μg/mL doxycycline and 40 μM biotin for 4 h; streptavidin-Sepharose capture and mass spectrometry; SAINTexpress, Bayesian false discovery rate <5% against miniTurbo-eGFP-only and untransduced MCF10A controls.

Chains of the proteins cited; added tags and fusions are not shown.
UniProt Q9BUL8: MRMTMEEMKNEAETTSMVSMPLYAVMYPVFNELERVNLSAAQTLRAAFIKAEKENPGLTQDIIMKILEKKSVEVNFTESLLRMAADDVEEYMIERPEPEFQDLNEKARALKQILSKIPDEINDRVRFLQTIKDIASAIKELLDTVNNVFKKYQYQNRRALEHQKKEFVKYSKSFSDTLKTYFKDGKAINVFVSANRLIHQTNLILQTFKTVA
UniProt O00506: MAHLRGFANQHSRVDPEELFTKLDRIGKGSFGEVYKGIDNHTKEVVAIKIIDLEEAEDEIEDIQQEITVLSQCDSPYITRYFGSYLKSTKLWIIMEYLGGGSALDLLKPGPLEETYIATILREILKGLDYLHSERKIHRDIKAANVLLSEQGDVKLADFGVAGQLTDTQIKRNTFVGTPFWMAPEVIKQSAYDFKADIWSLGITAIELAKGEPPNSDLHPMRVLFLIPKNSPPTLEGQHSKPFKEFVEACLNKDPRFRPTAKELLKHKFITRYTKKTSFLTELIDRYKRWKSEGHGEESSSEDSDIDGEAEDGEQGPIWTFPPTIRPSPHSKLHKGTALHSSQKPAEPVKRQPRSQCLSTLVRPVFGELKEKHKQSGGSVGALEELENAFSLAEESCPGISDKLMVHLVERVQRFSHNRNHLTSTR
UniProt Q9P289: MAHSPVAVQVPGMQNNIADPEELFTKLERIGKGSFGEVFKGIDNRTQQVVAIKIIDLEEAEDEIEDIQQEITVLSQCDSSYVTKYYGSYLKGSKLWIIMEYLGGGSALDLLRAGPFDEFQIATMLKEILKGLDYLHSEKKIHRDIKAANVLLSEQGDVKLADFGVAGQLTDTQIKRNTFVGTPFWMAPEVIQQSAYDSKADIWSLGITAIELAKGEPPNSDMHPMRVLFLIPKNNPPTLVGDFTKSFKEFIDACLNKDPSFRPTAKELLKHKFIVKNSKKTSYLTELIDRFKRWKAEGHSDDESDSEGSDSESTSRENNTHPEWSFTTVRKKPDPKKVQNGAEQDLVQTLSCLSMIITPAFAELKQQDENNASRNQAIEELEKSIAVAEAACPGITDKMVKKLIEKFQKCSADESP

No constants are given. Whether binding was seen depends on the method and setting. In cells and extracts the contact can be indirect. A yes stands for co-enrichment or nearness to the bait. Other partners may have been found. Where a sequence is shown, tags or fusion partners need not be part of it.

For the substance PDCD10 (from UniProt Q9BUL8 1-212), the binding entry is given as “binds”.
On to “STK25 (from UniProt O00506 1-426) (enzyme)”, for which the binding entry was “binds”.
Turning to “STK26 (from UniProt Q9P289 1-416) (enzyme)”, the binding entry is given as “binds”.

The record behind these values is PMC11063629.
